In publication PMC10415182:
No constants are given. Whether binding was seen depends on the method and setting. Binding seen in cells or lysates may run through a third protein. Some binding calls cover weakened binding; strength is not graded here. Sequences can lack the tags named with a protein.

T1: yArf1-11–GFP (yeast Arf1 K38T–E132D–L173S C-terminally fused to GFP) (yeast (Saccharomyces cerevisiae)) (UniProt P11076)
T1 sequence: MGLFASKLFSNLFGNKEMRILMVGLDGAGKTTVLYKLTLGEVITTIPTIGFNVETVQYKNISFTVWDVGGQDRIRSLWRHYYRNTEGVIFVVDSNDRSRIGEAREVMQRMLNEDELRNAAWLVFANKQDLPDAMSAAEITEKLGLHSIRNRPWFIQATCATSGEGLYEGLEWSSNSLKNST

T2: yArf1–GFP (wild-type yeast Arf1 C-terminally fused to GFP) (yeast (Saccharomyces cerevisiae)) (UniProt P11076)
T2 sequence: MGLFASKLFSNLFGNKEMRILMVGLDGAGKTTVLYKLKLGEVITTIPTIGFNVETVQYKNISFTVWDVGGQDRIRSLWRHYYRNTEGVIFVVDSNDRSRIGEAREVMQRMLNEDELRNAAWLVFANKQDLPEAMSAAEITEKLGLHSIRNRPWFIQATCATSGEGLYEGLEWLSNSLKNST


Columns and labels:
[1] = target: T1, yArf1-11–GFP (yeast Arf1 K38T–E132D–L173S C-terminally fused to GFP) (yeast (Saccharomyces cerevisiae)); experiment: co-IP; anti-GFP magnetic beads (Chromotek) on yeast lysate, 1 h at 4 °C; IP buffer 25 mM Tris–HCl pH 7.5, 150 mM NaCl, 2 mM EDTA, 0.6% Triton X-100, 1 mM DTT; strains grown at 23 °C or shifted to 37 °C; 6xHA-tagged partners on the blot
[2] = target: T2, yArf1–GFP (wild-type yeast Arf1 C-terminally fused to GFP) (yeast (Saccharomyces cerevisiae)); experiment: as above

Binder	binding [1]	binding [2]
Dga1-6xHA (enzyme, UniProt Q08650 1-418) MSGTFNDIRRRKKEEGSPTAGITERHENKSLSSIDKREQTLKPQLESCCPLATPFERRLQTLAVAWHTSSFVLFSIFTLFAISTPALWVLAIPYMIYFFFDRSPATGEVVNRYSLRFRSLPIWKWYCDYFPISLIKTVNLKPTFTLSKNKRVNEKNYKIRLWPTKYSINLKSNSTIDYRNQECTGPTYLFGYHPHGIGALGAFGAFATEGCNYSKIFPGIPISLMTLVTQFHIPLYRDYLLALGISSVSRKNALRTLSKNQSICIVVGGARESLLSSTNGTQLILNKRKGFIKLAIQTGNINLVPVFAFGEVDCYNVLSTKKDSVLGKMQLWFKENFGFTIPIFYARGLFNYDFGLLPFRAPINVVVGRPIYVEKKITNPPDDVVNHFHDLYIAELKRLYYENREKYGVPDAELKIVG	binds	binds
Pex13-6xHA (protein, UniProt P80667 1-386) MSSTAVPRPKPWETSASLEEPQRNAQSLSAMMTSNQQDSRPTEESNNSNSASESAPEVLPRPAALNSSGTYGESNTIPGIYGNSNYGIPYDNNPYSMNSIYGNSIGRYGYGGSYYGNNYGSFYGGGYGAGAGYGMNNGSGLGESTKATFQLIESLIGAVTGFAQMLESTYMATHNSFFTMISVAEQFGNLKEMLGSFFGIFAIMKFLKKILYRATKGRLGIPPKNFAESEGSKNKLIEDFQKFNDSGTINSNEKATRRKISWKPLLFFLMAVFGFPYLLNKFITKLQTSGTIRASQGNGSEPIDPSKLEFARALYDFVPENPEMEVALKKGDLMAILSKKDPLGRDSDWWKVRTKNGNIGYIPYNYIEIIKRRKKIEHVDDETRTH	binds	binds

Other lines, results leading:

binding [1]	binding [2]	Binder
binds	binds	Faa1-6xHA (enzyme, UniProt P30624 1-700) MVAQYTVPVGKAANEHETAPRRNYQCREKPLVRPPNTKCSTVYEFVLECFQKNKNSNAMGWRDVKEIHEESKSVMKKVDGKETSVEKKWMYYELSHYHYNSFDQLTDIMHEIGRGLVKIGLKPNDDDKLHLYAATSHKWMKMFLGAQSQGIPVVTAYDTLGEKGLIHSLVQTGSKAIFTDNSLLPSLIKPVQAAQDVKYIIHFDSISSEDRRQSGKIYQSAHDAINRIKEVRPDIKTFSFDDILKLGKESCNEIDVHPPGKDDLCCIMYTSGSTGEPKGVVLKHSNVVAGVGGASLNVLKFVGNTDRVICFLPLAHIFELVFELLSFYWGACIGYATVKTLTSSSVRNCQGDLQEFKPTIMVGVAAVWETVRKGILNQIDNLPFLTKKIFWTAYNTKLNMQRLHIPGGGALGNLVFKKIRTATGGQLRYLLNGGSPISRDAQEFITNLICPMLIGYGLTETCASTTILDPANFELGVAGDLTGCVTVKLVDVEELGYFAKNNQGEVWITGANVTPEYYKNEEETSQALTSDGWFKTGDIGEWEANGHLKIIDRKKNLVKTMNGEYIALEKLESVYRSNEYVANICVYADQSKTKPVGIIVPNHAPLTKLAKKLGIMEQKDSSINIENYLEDAKLIKAVYSDLLKTGKDQGLVGIELLAGIVFFDGEWTPQNGFVTSAQKLKRKDILNAVKDKVDAVYSSS
binds	binds	Tgl4-6xHA (enzyme, UniProt P36165 1-910) MSSKISDLTSTQNKPLLVTQQLIEKYYEQILGTSQNIIPILNPKNKFIRPSKDNSDVERVEEDAGKRLQTGKNKTTNKVNFNLDTGNEDKLDDDQETVTENENNDIEMVETDEGEDERQGSSLASKCKSFLYNVFVGNYERDILIDKVCSQKQHAMSFEEWCSAGARLDDLTGKTEWKQKLESPLYDYKLIKDLTSRMREERLNRNYAQLLYIIRTNWVRNLGNMGNVNLYRHSHVGTKYLIDEYMMESRLALESLMESDLDDSYLLGILQQTRRNIGRTALVLSGGGTFGLFHIGVLGTLFELDLLPRVISGSSAGAIVASILSVHHKEEIPVLLNHILDKEFNIFKDDKQKSESENLLIKISRFFKNGTWFDNKHLVNTMIEFLGDLTFREAYNRTGKILNITVSPASLFEQPRLLNNLTAPNVLIWSAVCASCSLPGIFPSSPLYEKDPKTGERKPWTGSSSVKFVDGSVDNDLPISRLSEMFNVDHIIACQVNIHVFPFLKLSLSCVGGEIEDEFSARLKQNLSSIYNFMANEAIHILEIGSEMGIAKNALTKLRSVLSQQYSGDITILPDMCMLFRIKELLSNPTKEFLLREITNGAKATWPKVSIIQNHCGQEFALDKAISYIKGRMIVTSSLKTPFQFADSVIGLIKAPEQTSDESKNPENSTLLTRTPTKGDNHISNVLDDNLLESESTNSLLLLRENASTYGRSPSGFRPRYSITSASLNPRHQRRKSDTISTSRRPAKSFSFSVASPTSRMLRQSSKINGHPPPILQKKTSMGRLMFPMDAKTYDPESHELIPHSASIETPAMVDKKLHFGRKSRYLRHMNKKWVSSSNILYTDSDKEDHPTLRLISNFDSDAMIHSDLAGNFRRHSIDGRPPSQATKSSPFRSRPSSSTQHKSTTSFTQ
